Laboratory results as given in the supplement of paper PMC8920030.
The source gives many values for each of these; only a part stands here. Where a SMILES comes first, the peptide text is derived from it. Bridges are numbered along the chain shown (N, C = ends). [ ]: non-standard residue; d: D form. The star is where a group is joined. Heptanoyl(5-Me) = CCC(C)CCCC(=O)*; Dab = NCC[C@H](N)C(=O)O

How the values were obtained:
Settings in all cases: growth mode: biofilm, 24 h; exposure time: 24 h
colistin [1] = compound: T1, CCC(C)CCCC(=O)N[C@@H](CCN)C(=O)N[C@H](C(=O)N[C@@H](CCN)C(=O)N[C@H]1CCNC(=O)[C@H]([C@@H](C)O)NC(=O)[C@H](CCN)NC(=O)[C@H](CCN)NC(=O)[C@H](CC(C)C)NC(=O)[C@@H](CC(C)C)NC(=O)[C@H](CCN)NC1=O)[C@@H](C)O [colistin]; assay: minimum concentration of killing, 4-log CFU reduction of biofilm (MCK99.99); higher = more biofilm tolerance
Description: (§1)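 Clinical P. aeruginosa isolates were grown as static biofilms for 24 h at 37 °C in LB in half-area 96-well plates, then exposed for 24 h to colistin at 1, 4, 16, 64, 256 or […]. Surviving CFU were counted by spotting serial dilutions. MCK is the lowest tested concentration giving the stated log reduction in CFU versus an untreated control; '>1024' means the reduction was not reached at the top dose, and 1 is the lowest dose tested (≤1).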

tobramycin [2] = compound: T2, NC[C@H]1O[C@H](O[C@H]2[C@H](O)[C@@H](O[C@H]3O[C@H](CO)[C@@H](O)[C@H](N)[C@H]3O)[C@H](N)C[C@@H]2N)[C@H](N)C[C@@H]1O [tobramycin]; assay: minimum concentration of killing, 2-log CFU reduction of biofilm (MCK99); higher = more biofilm tolerance
Description: (§2)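 Clinical P. aeruginosa isolates were grown as static biofilms for 24 h at 37 °C in LB in half-area 96-well plates, then exposed for 24 h to tobramycin at 1, 4, 16, 64, 256 or […]. Surviving CFU were counted by spotting serial dilutions. MCK is the lowest tested concentration giving the stated log reduction in CFU versus an untreated control; '>1024' means the reduction was not reached at the top dose, and 1 is the lowest dose tested (≤1).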

tobramycin [3] = compound: T2, tobramycin; assay: minimum concentration of killing, 1-log CFU reduction of biofilm (MCK90); higher = more biofilm tolerance
Description: as §2

tobramycin [4] = compound: T2, tobramycin; assay: minimum concentration eradicating biofilm below detection limit (MCK-E); higher = more biofilm tolerance
Description: as §2

colistin [5] = compound: T1, colistin; assay: as above
Description: as §1

colistin [6] = compound: T1, colistin; assay: minimum concentration of killing, 2-log CFU reduction of biofilm (MCK99); higher = more biofilm tolerance
Description: as §1

colistin [7] = compound: T1, colistin; assay: minimum concentration of killing, 1-log CFU reduction of biofilm (MCK90); higher = more biofilm tolerance
Description: as §1

tobramycin [8] = compound: T2, tobramycin; assay: minimum concentration of killing, 4-log CFU reduction of biofilm (MCK99.99); higher = more biofilm tolerance
Description: as §2

Test System	minimum concentration of killing (colistin [1]) [µg/mL]	minimum concentration of killing (tobramycin [2]) [µg/mL]	minimum concentration of killing (tobramycin [3]) [µg/mL]	minimum concentration eradicating biofilm below detection limit (tobramycin [4]) [µg/mL]	minimum concentration eradicating biofilm below detection limit (colistin [5]) [µg/mL]	minimum concentration of killing (colistin [6]) [µg/mL]	minimum concentration of killing (colistin [7]) [µg/mL]	minimum concentration of killing (tobramycin [8]) [µg/mL]
Pseudomonas aeruginosa clinical isolate CH4418	256	64	64	1020	256	256	256	1020
Pseudomonas aeruginosa clinical isolate CH4992	256	64	16	256	256	256	256	64
Pseudomonas aeruginosa clinical isolate F2148	256	4	≤ 1	256	256	64	64	4
Pseudomonas aeruginosa clinical isolate CH4878	256	16	4	256	256	256	64	256
Pseudomonas aeruginosa clinical isolate MD8386	256	256	256	1020	256	64	64	256
Pseudomonas aeruginosa clinical isolate MHH0927	64	256	16	1020	64	64	4	1020
Pseudomonas aeruginosa clinical isolate ZG8510487	256	256	16	> 1020	256	256	64	1020
Pseudomonas aeruginosa clinical isolate MS5	256	256	256	1020	256	256	16	1020
Pseudomonas aeruginosa clinical isolate MHH14929	256	16	≤ 1	1020	256	256	256	256
Pseudomonas aeruginosa clinical isolate CH3466	256	256	16	256	256	256	256	256
Pseudomonas aeruginosa clinical isolate F2229	256	256	4	1020	256	64	16	1020
Pseudomonas aeruginosa clinical isolate CH4584	256	256	256	> 1020	256	256	256	256
Pseudomonas aeruginosa clinical isolate MD9481	256	16	4	64	256	64	64	16
Pseudomonas aeruginosa clinical isolate CH2756	256	64	≤ 1	256	256	256	256	64
Pseudomonas aeruginosa clinical isolate CH3549	256	64	≤ 1	1020	256	256	64	256
Pseudomonas aeruginosa clinical isolate CH5334	256	64	4	1020	256	256	256	256
Pseudomonas aeruginosa clinical isolate CH2829	256	64	64	256	256	64	16	256
Pseudomonas aeruginosa clinical isolate CH4684	256	≤ 1	≤ 1	256	256	64	64	64
Pseudomonas aeruginosa clinical isolate M70565254	256	4	≤ 1	256	256	256	64	64
Pseudomonas aeruginosa clinical isolate CH2678	256	> 1020	> 1020	> 1020	256	256	256	> 1020

Test System	minimum concentration of killing (colistin [1]) [µg/mL]	minimum concentration of killing (tobramycin [2]) [µg/mL]	minimum concentration of killing (tobramycin [3]) [µg/mL]	minimum concentration eradicating biofilm below detection limit (tobramycin [4]) [µg/mL]	minimum concentration eradicating biofilm below detection limit (colistin [5]) [µg/mL]	minimum concentration of killing (colistin [6]) [µg/mL]	minimum concentration of killing (colistin [7]) [µg/mL]	minimum concentration of killing (tobramycin [8]) [µg/mL]
Pseudomonas aeruginosa clinical isolate M70640096	256	16	16	64	256	256	256	16
Pseudomonas aeruginosa clinical isolate MHH15015	64	1020	256	1020	256	64	64	1020
Pseudomonas aeruginosa clinical isolate MHH0985	16	> 1020	> 1020	> 1020	64	16	16	> 1020
Pseudomonas aeruginosa clinical isolate M70656672	256	≤ 1	≤ 1	64	256	256	64	16
Pseudomonas aeruginosa clinical isolate CH4766	256	64	64	1020	256	256	256	256
Pseudomonas aeruginosa clinical isolate Psae1656	256	16	16	64	256	256	64	64
Pseudomonas aeruginosa clinical isolate CH5432	256	1020	16	> 1020	1020	64	64	> 1020
Pseudomonas aeruginosa clinical isolate ZG302359	256	64	≤ 1	1020	256	256	256	256
Pseudomonas aeruginosa clinical isolate M70646050	256	4	≤ 1	64	256	256	256	64
Pseudomonas aeruginosa clinical isolate ZG205565	256	16	≤ 1	64	1020	64	64	16
Pseudomonas aeruginosa clinical isolate PSAE1641	256	≤ 1	≤ 1	256	256	256	256	4
Pseudomonas aeruginosa clinical isolate ZG8038581181	256	256	16	1020	256	256	64	1020
Pseudomonas aeruginosa clinical isolate CH5387	256	16	16	256	256	64	64	64
Pseudomonas aeruginosa clinical isolate CH2848	256	16	16	256	256	256	64	64
Pseudomonas aeruginosa clinical isolate PSAE1745	256	1020	1020	> 1020	256	256	64	1020
Pseudomonas aeruginosa clinical isolate CH5362	256	4	≤ 1	1020	256	256	256	256
Pseudomonas aeruginosa clinical isolate CH3882	256	16	≤ 1	> 1020	256	256	16	256
Pseudomonas aeruginosa clinical isolate PSAE1649	256	≤ 1	≤ 1	64	256	64	64	16
Pseudomonas aeruginosa clinical isolate MHH17767	256	> 1020	256	> 1020	256	256	64	> 1020
Pseudomonas aeruginosa clinical isolate ZG316716	256	4	≤ 1	64	256	64	64	4
